Test results: article PMC10963278
No constants are given. Whether binding was seen depends on the method and setting. Binding seen in cells or lysates may run through a third protein. Binding calls can cover weak binding; strength is not graded here. For some assays here: Tags and fused reporters may be left off the sequences shown.

Protein sequences, listed by entry. Tags and fused reporters are not part of them.
UniProt Q9D6K5: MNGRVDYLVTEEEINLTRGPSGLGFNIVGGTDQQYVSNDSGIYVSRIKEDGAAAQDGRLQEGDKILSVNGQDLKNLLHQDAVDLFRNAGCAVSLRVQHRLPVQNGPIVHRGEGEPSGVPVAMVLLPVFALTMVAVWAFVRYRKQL

Experiments:
[1] = biological target: T1, myc-tagged SYNJ2BP S21E (rat) (UniProt Q9WVJ4); test: proximity ligation; Duolink PLA (anti-SYNJ2BP and anti-SYNJ2) on primary mouse hippocampal neurons overexpressing mitoRaspberry and SYNJ2BP WT, S21A or S21E; puncta per soma normalised to soma size
T1 sequence: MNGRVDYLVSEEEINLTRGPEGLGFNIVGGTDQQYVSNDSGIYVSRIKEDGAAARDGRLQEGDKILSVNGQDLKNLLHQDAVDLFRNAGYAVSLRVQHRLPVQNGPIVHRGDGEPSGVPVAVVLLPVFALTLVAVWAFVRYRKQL

[2] = biological target: Synaptojanin 2 binding protein (SYNJ2BP), endogenous (mouse (endogenous in primary hippocampal neurons)) (UniProt Q9D6K5); test: proximity ligation; Duolink PLA on fixed, permeabilised primary mouse hippocampal neurons with mouse anti-SYNJ2BP and rabbit anti-SYNJ2 against the endogenous proteins; puncta per soma normalised to soma size; in Hibernate E imaging medium or full B27 culture medium; treatments: control, AICAR (1 mM, 2 h), insulin starvation (2 h), insulin (500 nM, 1 h) with or without GSK1904529A (1 µM, 2 h)

binding [1]: binds | binding [2]: binds
Substance: Synaptojanin 2 (SYNJ2), endogenous (from UniProt Q9D2G5-6)
